Experimental data from PMC3630204.
Results are given in words; binding and its absence hold for the method and conditions named. Sequences can lack the tags named with a protein.

Experiments:
[1] = molecular target: E. coli MenH Tyr85Phe mutant, His-tagged (E. coli) (UniProt P37355); assay: SEC; Superdex 200 16/60 column in 50 mM Tris-HCl pH 8.5, 150 mM NaCl, 1% v/v glycerol, 1 mM TCEP; self-association; both purified
[2] = molecular target: E. coli MenH Arg124Ala mutant, His-tagged (E. coli) (UniProt P37355); assay: as above

Binder	binding [1]	binding [2]
E. coli MenH Tyr85Phe mutant, His-tagged (enzyme, UniProt P37355 1-252) MILHAQAKHGKPGLPWLVFLHGFSGDCHEWQEVGEAFADYSRLYVDLPGHGGSAAISVDGFDDVTDLLRKTLVSYNILDFWLVGFSLGGRVAMMAACQGLAGLCGVIVEGGHPGLQNAEQRAERQRSDRQWVQRFLTEPLTAVFADWYQQPVFASLNDDQRRELVALRSNNNGATLAAMLEATSLAVQPDLRANLSARTFAFYYLCGERDSKFRALAAELAADCHVIPRAGHNAHRENPAGVIASLAQILRF	no binding	–
E. coli MenH Arg124Ala mutant, His-tagged (enzyme, UniProt P37355 1-252) MILHAQAKHGKPGLPWLVFLHGFSGDCHEWQEVGEAFADYSRLYVDLPGHGGSAAISVDGFDDVTDLLRKTLVSYNILDFWLVGYSLGGRVAMMAACQGLAGLCGVIVEGGHPGLQNAEQRAEAQRSDRQWVQRFLTEPLTAVFADWYQQPVFASLNDDQRRELVALRSNNNGATLAAMLEATSLAVQPDLRANLSARTFAFYYLCGERDSKFRALAAELAADCHVIPRAGHNAHRENPAGVIASLAQILRF	–	no binding
